Where two headings read alike, the source gives them in different places.

Data set [1] relates to cassava roots. Conditions: after four days, dry powder dip of cut surface, FIG. 2.
Data set [2] deals with cassava roots. Conditions: powder dip, average of 10 cassava segments, FIG. 5.

In the case of `O.O.O.O.O.O=S([O-])([O-])=S.[Na+].[Na+]` [sodium thiosulfate, sodium thiosulfate pentahydrate], the “discoloration (PPD) of treated cut cassava root sections versus untreated” value in the data set with cassava roots [1] is recorded as “largely free of such discoloration”; with cassava roots [1] (listed as sodium thiosulfate pentahydrate), “considerably less discoloration”. The total starch lost result with cassava roots [2] (day 4 postharvest) was “about 6%”; with cassava roots [2] (day 4 postharvest, listed as sodium thiosulfate pentahydrate), 6%; in the data set with cassava roots [2] (day 8 postharvest), “less than 8%”.

These data come from patent US20200352184A1, “Prevention of Postharvest Physiological Deterioration using Sulfur-Donating Compounds” (Apeel Technology, Inc., priority 2017, published 2020).
